{
  "sequences": {"note": "The chains behind the UniProt entries cited, without tags or fusion partners.", "UniProt Q9UL46": "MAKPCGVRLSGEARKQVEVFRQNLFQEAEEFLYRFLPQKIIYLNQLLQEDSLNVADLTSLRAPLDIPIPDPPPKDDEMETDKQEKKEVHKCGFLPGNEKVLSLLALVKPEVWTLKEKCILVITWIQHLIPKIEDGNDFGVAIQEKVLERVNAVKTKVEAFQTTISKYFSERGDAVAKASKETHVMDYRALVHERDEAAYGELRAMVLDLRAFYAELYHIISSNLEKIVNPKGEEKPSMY", "UniProt Q06323": "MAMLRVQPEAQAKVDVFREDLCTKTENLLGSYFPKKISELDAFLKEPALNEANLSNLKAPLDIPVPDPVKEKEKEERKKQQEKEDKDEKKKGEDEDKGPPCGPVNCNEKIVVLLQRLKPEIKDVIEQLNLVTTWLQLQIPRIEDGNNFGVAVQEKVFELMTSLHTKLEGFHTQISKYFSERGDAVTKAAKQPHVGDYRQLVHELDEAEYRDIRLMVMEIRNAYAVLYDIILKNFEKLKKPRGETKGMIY"},
  "source": "paper PMC7854634",
  "target": "human PA28β (human) (UniProt Q9UL46)",
  "assay": "cryo-EM structure; PA28αβ and iCP mixed at a molar ratio of 10:1, 37 °C 30 min, cross-linked with 0.1% glutaraldehyde at 4 °C for 2 h, glycerol gradient; single-capped (4.1 Å) and double-capped (4.2 Å) complexes and free iCP (3.3 Å) from one data set; both purified",
  "note": "No constants are given. Whether binding was seen depends on the method and setting. Some binding calls cover weakened binding; strength is not graded here.",
  "data": [
    {"substance": "human PA28α (from UniProt Q06323 1-249)", "values": [
      {"measurement": "binding", "value": "binds"}
    ]}
  ]
}
